Source: paper PMC5986199

Legend:
[1] = target: α-NAC subunit of C. elegans NAC (C. elegans); assay: native gel or EMSA; NAC heterodimer alone; 10% native PAGE, Tris/glycine pH 8.5, Coomassie Blue; both purified
[2] = target: α-NAC subunit lacking the UBA domain (C. elegans); assay: as above
[3] = target: α-NAC subunit of C. elegans NAC (C. elegans); assay: cross-linking; BS3 (d0/d4) at 20- or 50-fold molar excess, 20 uM NAC alone or + 20 uM substrate, 10 mM sodium phosphate pH 7.0, room temperature 1 h; SDS-PAGE, in-gel tryptic digest, LC-MS/MS; both purified
[4] = target: α-NAC subunit lacking the UBA domain (C. elegans); assay: as above
[5] = target: α-NAC subunit of C. elegans NAC (C. elegans); assay: native MS; NAC heterodimer alone, 10 uM in 100 mM ammonium acetate pH 6.9, nano-ESI, positive mode; both purified
[6] = target: α-NAC subunit lacking the UBA domain (C. elegans); assay: as above

Measured: binding

B1: β-NAC subunit of C. elegans NAC (protein, UniProt Q18885 1-161)
chain: MDSKAIAERIKKLQAQQEHVRIGGKGTPRRKKKVIHKTAAADDKKLQSNLKKLSVTNIPGIEEVNMIKDDGTVIHFNNPKVQTSVPANTFSVTGSADNKQITEMLPGILNQLGPESLTHLKKLANNVTKLGPDGKGEDEDVPELVGDFDAASKNETKADEQ
binds: all assays above

Results are given in words; binding and its absence hold for the method and conditions named. A result given as binding can be weak or reduced; the word gives no strength.
